PubChem BioAssay AID1224828 – NIAID, 2016

Assay: 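Find genes required for NF-kappaB p65 moving into the nucleus after LPS in mouse macrophages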 (primary screen)
Cells: mouse RAW264.7 G9 macrophage reporter cells (GFP-p65, Tnf promoter-mCherry)
Knock-down reagent: siRNA pool against mouse genes, 100 nM
Time to read-out: 2 days siRNA transfection, then 40 min LPS before fixation
Challenge: LPS (Salmonella minnesota R595) at 10 ng/ml
Measured: 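Microscopy ratio of nuclear to perinuclear-ring GFP-p65 signal, scaled to the plate median; gene score is the average of two replicate robust z-scores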
Direction: p65 translocation robust z-score: higher = more nuclear NF-kappaB p65 after LPS than the plate median; nuclear/cytoplasmic p65 ratio: higher = more nuclear NF-kappaB p65
Call rule: 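Active if robust z is above 3.3 (negative regulators) or below -1.56, the Tlr4 control median (positive regulators); activity score 50 or more; control wells not called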
Calls: active = hit (p65 shift raised or lowered); inactive = no clear change
In all, the deposit lists about 17,000 reagents; shown is a part drawn at random. Over the whole deposit, 762 (4.5%) are marked active. 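Active calls include both raised and lowered p65 entry, mostly lowered; wells with fewer than 50 cells lack a z-score.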 Raw values are not corrected between plates. No sequences are given here.

What did the screen give for Ncdn (neurochondrin)?
p65 translocation robust z-score: -2.1; nuclear/cytoplasmic p65 ratio, rep 1: 1.36; nuclear/cytoplasmic p65 ratio, rep 2: 1.34; low cell count flag: enough cells to score; Call: active

With Or2z8 (olfactory receptor family 2 subfamily Z member 8), what was measured?
nuclear/cytoplasmic p65 ratio, rep 1: 1.37; nuclear/cytoplasmic p65 ratio, rep 2: 1.36; low cell count flag: fewer than 50 cells per well; well left out of scoring; Call: inactive

What is on record for Fam13c (family with sequence similarity 13, member C)?
p65 translocation robust z-score: -1.47; nuclear/cytoplasmic p65 ratio, rep 1: 1.21; nuclear/cytoplasmic p65 ratio, rep 2: 1.22; low cell count flag: enough cells to score; Call: inactive

What is on record for Iws1 (IWS1, SUPT6 interacting protein)?
p65 translocation robust z-score: 1.23; nuclear/cytoplasmic p65 ratio, rep 1: 1.74; nuclear/cytoplasmic p65 ratio, rep 2: 1.4; low cell count flag: enough cells to score; Call: inactive

For Rnf113a1 (ring finger protein 113A1), what was measured?
nuclear/cytoplasmic p65 ratio, rep 1: 1.3; nuclear/cytoplasmic p65 ratio, rep 2: 1.44; low cell count flag: fewer than 50 cells per well; well left out of scoring; Call: inactive

What did the screen give for Slc35b3?
nuclear/cytoplasmic p65 ratio, rep 1: 0; nuclear/cytoplasmic p65 ratio, rep 2: 1.03; low cell count flag: fewer than 50 cells per well; well left out of scoring; Call: inactive

What did the screen give for 4933440M02Rik (RIKEN cDNA 4933440M02 gene)?
nuclear/cytoplasmic p65 ratio, rep 1: 1.37; nuclear/cytoplasmic p65 ratio, rep 2: 1.62; low cell count flag: fewer than 50 cells per well; well left out of scoring; Call: inactive

Not a retest: entries from further up.
Or2z8 (olfactory receptor family 2 subfamily Z member 8): nuclear/cytoplasmic p65 ratio, rep 1 = 1.37; nuclear/cytoplasmic p65 ratio, rep 2 = 1.36; low cell count flag = fewer than 50 cells per well; well left out of scoring; Call = inactive
Fam13c (family with sequence similarity 13, member C): p65 translocation robust z-score = -1.47; nuclear/cytoplasmic p65 ratio, rep 1 = 1.21; nuclear/cytoplasmic p65 ratio, rep 2 = 1.22; low cell count flag = enough cells to score; Call = inactive

Additional entries follow.
For Clnk (cytokine-dependent hematopoietic cell linker), what does the deposit list?
p65 translocation robust z-score: 1; nuclear/cytoplasmic p65 ratio, rep 1: 1.9; nuclear/cytoplasmic p65 ratio, rep 2: 1.78; low cell count flag: enough cells to score; Call: inactive

Which result is listed for Pamr1?
p65 translocation robust z-score: -0.24; nuclear/cytoplasmic p65 ratio, rep 1: 1.43; nuclear/cytoplasmic p65 ratio, rep 2: 1.18; low cell count flag: enough cells to score; Call: inactive

For Saxo6 (stabilizer of axonemal microtubules 6), what does the deposit list?
p65 translocation robust z-score: -0.1; nuclear/cytoplasmic p65 ratio, rep 1: 1.43; nuclear/cytoplasmic p65 ratio, rep 2: 1.33; low cell count flag: enough cells to score; Call: inactive

Which result is listed for Kctd11 (potassium channel tetramerisation domain containing 11)?
p65 translocation robust z-score: -0.91; nuclear/cytoplasmic p65 ratio, rep 1: 1.51; nuclear/cytoplasmic p65 ratio, rep 2: 1.23; low cell count flag: enough cells to score; Call: inactive

How did the screen score Or4c104 (olfactory receptor family 4 subfamily C member 104)?
nuclear/cytoplasmic p65 ratio, rep 1: 1.67; nuclear/cytoplasmic p65 ratio, rep 2: 1.24; low cell count flag: fewer than 50 cells per well; well left out of scoring; Call: inactive

With Vav1 (vav guanine nucleotide exchange factor 1), how do the results read?
p65 translocation robust z-score: 0.03; nuclear/cytoplasmic p65 ratio, rep 1: 1.55; nuclear/cytoplasmic p65 ratio, rep 2: 1.48; low cell count flag: enough cells to score; Call: inactive

Which result is listed for Pde1c (phosphodiesterase 1C)?
p65 translocation robust z-score: -0.58; nuclear/cytoplasmic p65 ratio, rep 1: 1.33; nuclear/cytoplasmic p65 ratio, rep 2: 1.38; low cell count flag: enough cells to score; Call: inactive

What is on record for C130026L21Rik (RIKEN cDNA C130026L21 gene)?
p65 translocation robust z-score: 0.33; nuclear/cytoplasmic p65 ratio, rep 1: 1.36; nuclear/cytoplasmic p65 ratio, rep 2: 1.57; low cell count flag: enough cells to score; Call: inactive

For Taf15 (TATA-box binding protein associated factor 15), what does the deposit list?
p65 translocation robust z-score: 0.43; nuclear/cytoplasmic p65 ratio, rep 1: 1.6; nuclear/cytoplasmic p65 ratio, rep 2: 1.56; low cell count flag: enough cells to score; Call: inactive

What is on record for Sycp1 (synaptonemal complex protein 1)?
p65 translocation robust z-score: -0.18; nuclear/cytoplasmic p65 ratio, rep 1: 1.38; nuclear/cytoplasmic p65 ratio, rep 2: 1.14; low cell count flag: enough cells to score; Call: inactive

With Itih4 (inter alpha-trypsin inhibitor, heavy chain 4), how do the results read?
p65 translocation robust z-score: -0.04; nuclear/cytoplasmic p65 ratio, rep 1: 1.51; nuclear/cytoplasmic p65 ratio, rep 2: 1.46; low cell count flag: enough cells to score; Call: inactive

With Tmc4 (transmembrane channel-like gene family 4), how do the results read?
nuclear/cytoplasmic p65 ratio, rep 1: 1.35; nuclear/cytoplasmic p65 ratio, rep 2: 1.17; low cell count flag: fewer than 50 cells per well; well left out of scoring; Call: inactive

What is on record for Pdgfra (platelet derived growth factor receptor, alpha polypeptide)?
p65 translocation robust z-score: 0.94; nuclear/cytoplasmic p65 ratio, rep 1: 1.87; nuclear/cytoplasmic p65 ratio, rep 2: 1.47; low cell count flag: enough cells to score; Call: inactive

For Eps15 (EGFR pathway substrate 15), what was measured?
p65 translocation robust z-score: 1.26; nuclear/cytoplasmic p65 ratio, rep 1: 1.58; nuclear/cytoplasmic p65 ratio, rep 2: 1.58; low cell count flag: enough cells to score; Call: inactive
